Laboratory results from PubChem BioAssay AID2685 (National Center for Advancing Translational Sciences (NCATS), 2010).
The list shows a part of the results. The main result of the screen is listed elsewhere. These columns were measured beside it and carry no call. The list favours compounds with an active or inconclusive main result. The note in brackets gives the kind of curve behind each potency; many fits are weak.

Test: qHTS Assay for Lipid Storage Modulators in Drosophila S3 Cells;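 for cell number change: cells counted by Cell Tracker Red CMTPX staining in the red channel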
Conditions: BODIPY lipid droplet fluorescence, 18-24 h; for cell number change: measured here: cell count max response, cells fed with added oleic acid
Outline: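 Laser-scanning cytometry quantifies lipid droplet accumulation (500–530 nm total intensity; droplet/cell object ratio) in oleic acid-fed (400 uM added) Drosophila S3 cells treated with a concentration series. 20 uM Triacsin C defined 100% inhibition.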

[1] = measured here: lipid fluorescence (Fed channel) AC50, cells fed with added oleic acid
[2] = measured here: cell number channel AC50, cells fed with added oleic acid

## Cc1cccc(-c2c3c(=O)n(C)c(=O)n(C)c3c3cccnn23)c1
  cell number change: 3.93%
[1]
  AC50: 0.116 µM [rising, full curve]

## Cc1ccc(-c2cc(C(=O)Nc3cccnc3)c3ccccc3n2)o1
  cell number change: -15.4%

## O=C(CCc1nc2sc3c(c2c(=O)[nH]1)CCCC3)NCCc1ccc(F)cc1
[1]
  AC50: 22.4 µM [rising, partial curve, poor fit]

## COc1ccc2c(C)cc3nnnn3c2c1
  cell number change: 21%

## CC(=O)c1ccc(CCCC(=O)O)cc1
  cell number change: 2.79%
[1]
  AC50: 9.2 µM [falling, partial curve, poor fit]

## O=C(CSc1nnc(-c2ccccc2)c(-c2ccccc2)n1)NCc1ccco1
  cell number change: -24.8%
[1]
  AC50: 32.6 µM [falling, partial curve, poor fit]

## O=C(COC(=O)c1ncc(Cl)c(Cl)c1Cl)NC(=O)NCc1ccccc1
  cell number change: -69%
[2]
  AC50: 29.1 µM [falling, single point]

## O=C(CNc1cccc2ccccc12)N/N=C/c1ccccn1
  cell number change: 18.2%
[2]
  AC50: 3.66 µM [rising, partial curve, poor fit]
[1]
  AC50: 6.51 µM [rising, partial curve, poor fit]

## c1ccc(Oc2cccc(OCCCCN3CCCC3)c2)cc1
  cell number change: -6.43%
[1]
  AC50: 29.1 µM [rising, single point]

## Cc1cccc(C)c1NC(=O)N1CCC(c2nc3ccccc3o2)CC1
  cell number change: -72.1%
[2]
  AC50: 5.8 µM [falling, partial curve]
[1]
  AC50: 2.59 µM [falling, full curve]

## N#Cc1cnc(NOCc2ccc(Cl)cc2)nc1
  cell number change: -15.5%
[1]
  AC50: 32.6 µM [falling, single point]

## COc1ccc(/C=C/C(=O)OCC(=O)Nc2ccc(Cl)c(S(=O)(=O)N(C)C)c2)cc1OC
[1]
  AC50: 6.51 µM [rising, single point]

## COCCNC(=O)C(c1ccc(C)o1)N(C(=O)c1snc(C(N)=O)c1N)c1cccc(C)c1 (stereo unspecified)
  cell number change: -6.67%
[1]
  AC50: 3.66 µM [rising, single point]

## COc1ccc(OC)c(NC(=O)c2cnn(-c3ccccc3Cl)c2NC(=O)c2ccco2)c1
  cell number change: 82.4%
[2]
  AC50: 16.4 µM [rising, partial curve]
[1]
  AC50: 0.651 µM [rising, single point]

## O=c1cc(O)c2sc3nc(-c4ccccc4)cc(C(F)(F)F)c3c2[nH]1
  cell number change: -0.905%
[1]
  AC50: 0.092 µM [falling, full curve, poor fit]

## CCOC(=O)N1CCN(C(=O)CNC(=O)Cc2ccc(Cl)cc2)CC1
  cell number change: -20.3%
[2]
  AC50: 0.13 µM [falling, full curve, poor fit]
[1]
  AC50: 6.51 µM [falling, single point]

## O=C(CCNC(=O)c1ccccc1Cl)Nc1ccc(Cl)c(C(F)(F)F)c1
  cell number change: 18.2%
[2]
  AC50: 0.146 µM [rising, full curve, poor fit]
[1]
  AC50: 29.1 µM [rising, partial curve]

## CCOC(=O)c1c(CN(CC)CC)n(C)c2cc(Br)c(O)cc12
  cell number change: 18.2%

## CCN(CC(=O)Nc1c(F)cccc1F)C(=O)c1cc(C)nc2ccccc12
  cell number change: 24%

## O=C(Cn1c(=O)n(Cc2ccco2)c(=O)c2cc(Cl)ccc21)NCC1CCCO1 (stereo unspecified)
  cell number change: -4.87%
[1]
  AC50: 29.1 µM [rising, single point]

## Cc1ccc(S(=O)(=O)NC(=O)N2CCCN(Cc3ccc(F)cc3)CC2)cc1
  cell number change: -42.8%
[2]
  AC50: 0.651 µM [falling, full curve]
[1]
  AC50: 0.731 µM [falling, full curve]

## CCCNC(=O)Cn1cnc2sc(C(=O)NCCN(CC)CC)c(C)c2c1=O
  cell number change: 20.4%
[1]
  AC50: 20.6 µM [rising, single point]

## COc1ccc(C(=O)NC(=S)NCc2ccccc2)cc1
  cell number change: 31.3%
[2]
  AC50: 0.146 µM [rising, full curve, poor fit]

## O=C(N/N=C/c1ccccc1)c1ccc(CN2C(=O)c3cccc4cccc2c34)cc1
  cell number change: -6.21%

## O=C(NC1CCCC1)C(c1ccncc1)N(Cc1ccccc1)C(=O)Cc1cccs1 (stereo unspecified)
[1]
  AC50: 2.31 µM [falling, partial curve]

## N#Cc1ccccc1NC1=CC(=O)CCC1
  cell number change: 7.69%
[1]
  AC50: 5.17 µM [falling, partial curve]

## Cc1ccc(S(=O)(=O)C2(C(=O)Nc3cccnc3)CC2)cc1
[1]
  AC50: 3.26 µM [rising, partial curve]

## CCCCn1c(N)c(N(CCOC)C(=O)c2ccc(C)c(S(=O)(=O)N3CCCCC3)c2)c(=O)[nH]c1=O
  cell number change: -6%

## COc1ccc(OC)c(S(=O)(=O)Nc2cnc3ccccc3c2)c1
  cell number change: -6.41%
[1]
  AC50: 2.06 µM [rising, full curve]

## O=C(Cc1ccc(Cl)cc1)Nc1ccc(-c2nnc(-c3ccco3)o2)cc1
  cell number change: -47.8%
[2]
  AC50: 32.6 µM [falling, partial curve]
[1]
  AC50: 29.1 µM [falling, single point]

## Cc1ccccc1Nc1nnc(SCC2CCCCO2)s1 (stereo unspecified)
[1]
  AC50: 6.51 µM [rising, single point]

## O=C(COC(=O)CN1C(=O)C(=O)c2ccccc21)OCN1C(=O)c2ccccc2C1=O
  cell number change: 13.5%

## COC(=O)c1cc(CNC(=O)c2ccc(S(=O)(=O)N(C)c3ccccc3)cc2)ccc1OC
  cell number change: -15.9%

## CC(=O)c1cccc(S(=O)(=O)NC2CC2)c1
[1]
  AC50: 1.16 µM [rising, full curve, poor fit]

## CC1=NN(c2ccccc2)C(=O)/C1=C\c1ccc(Oc2ccc([N+](=O)[O-])cc2[N+](=O)[O-])cc1
  cell number change: -8.81%
[1]
  AC50: 20.6 µM [falling, single point]

## CCOc1cc(/C=N/NC(=O)NN(C)c2ncc(C(F)(F)F)cc2Cl)ccc1O
  cell number change: -22.4%
[2]
  AC50: 3.26 µM [falling, single point]

## CCCC(CCC)n1[nH]c(=O)c2c(C)cc(C)nc21
  cell number change: -15.1%
[2]
  AC50: 6.51 µM [falling, single point]

## CS(=O)(=O)N1c2cccc3cccc(c23)S1(=O)=O
  cell number change: -41.4%
[2]
  AC50: 29.1 µM [falling, single point]

## O=C(OCc1nc2ccccc2s1)c1ccc(Br)o1
  cell number change: -50.8%
[2]
  AC50: 2.31 µM [falling, full curve]
[1]
  AC50: 1.64 µM [falling, partial curve]

## COC(=O)c1ccccc1OCCOc1ccccc1C(=O)OC
  cell number change: 20.8%

## CCc1cccc(C)c1NC(=O)CSc1nnc(C)o1
  cell number change: 1.76%
[1]
  AC50: 0.82 µM [falling, full curve, poor fit]

## Cc1ccc(S(=O)(=O)Nc2ccc3c(c2)nc(CCN2CCOCC2)n3C)cc1
  cell number change: -26.4%
[1]
  AC50: 10.3 µM [falling, partial curve]

## O=C(COc1ccc2ccccc2c1Br)Nn1cnnc1
  cell number change: 13%
[2]
  AC50: 1.46 µM [falling, partial curve]
[1]
  AC50: 0.731 µM [falling, full curve]

## CCCCOc1ccc(CSC2=NCCN2)cc1[N+](=O)[O-]
[2]
  AC50: 0.651 µM [rising, single point]

## C=CCn1c(SCC(=O)/C(C#N)=C(\C)N)nc2sc(CC)cc2c1=O
  cell number change: -32.4%
[2]
  AC50: 2.91 µM [falling, full curve, poor fit]
[1]
  AC50: 8.2 µM [falling, partial curve]

## Cc1cccc(Cc2nnc(CCC(=O)N(C)CCc3ccccc3)o2)c1
  cell number change: 1.1%

## Cc1ccc(OC(=O)c2cc3ccccc3o2)cc1
  cell number change: -24.4%
[2]
  AC50: 0.146 µM [falling, full curve, poor fit]
[1]
  AC50: 0.146 µM [falling, full curve, poor fit]

## CCn1cc(C(=O)O)c(=O)c2cc(F)c(N3CCN(C(=S)NC(=O)c4cccc(F)c4)CC3)cc21
  cell number change: -15.2%
[1]
  AC50: 6.51 µM [falling, single point]

## C=CCN1C(=O)/C(=C\c2cc(Br)c(OCc3ccccn3)c(OC)c2)SC1=S
  cell number change: -9.49%
[2]
  AC50: 0.58 µM [rising, full curve]

## CCSc1nc(C)c(C(C)=O)cc1C#N
  cell number change: 0.0256%
[1]
  AC50: 0.0651 µM [rising, full curve, poor fit]

## CCCCC1(C(=O)OCC)CC(CSC(=N)N)OC1=O (stereo unspecified)
  cell number change: -2.48%
[1]
  AC50: 4.11 µM [falling, full curve, poor fit]

## CCn1nnnc1SCC(=O)N1CCN(Cc2ccc3c(c2)OCCO3)CC1
  cell number change: -5.16%
[1]
  AC50: 2.59 µM [falling, full curve]

## Oc1ccc(Br)cc1C=Nc1ccc2[nH]ncc2c1
  cell number change: 2.96%
[1]
  AC50: 11.6 µM [falling, single point]

## O=C(CCc1ccccc1)Nc1ccc(NC(=O)c2ccco2)cc1
  cell number change: 9.65%
[1]
  AC50: 5.8 µM [rising, partial curve]

## CCN(c1ccccc1)S(=O)(=O)c1ccc(C(=O)Nc2ccncc2)cc1
  cell number change: 102%
[2]
  AC50: 18.4 µM [rising, partial curve]
[1]
  AC50: 25.9 µM [falling, single point]

## CC(=O)N(CCC1(C(C)C)CCOC(C)(C)C1)Cc1ccco1 (stereo unspecified)
  cell number change: 3.12%
[1]
  AC50: 25.9 µM [rising, single point]

## COc1cccc(NC(=O)N2CCCCCC2)c1
  cell number change: -20.3%

## O=C(NC(c1ccccc1)c1c(O)ccc2ccccc12)c1ccccc1Cl (stereo unspecified)
  cell number change: -33.6%
[2]
  AC50: 23.1 µM [falling, single point]
[1]
  AC50: 29.1 µM [falling, single point]

## Cc1cccc(NC(=O)c2snc3c(=O)[nH]cnc23)c1
  cell number change: 1.54%
[1]
  AC50: 0.731 µM [falling, single point]

## COc1cc(CO)cc(Br)c1OCC(=O)N1CCCCC1
  cell number change: -11.6%
[1]
  AC50: 20.6 µM [falling, partial curve, poor fit]

## O=C(CCNC(=O)c1ccc([N+](=O)[O-])cc1)Nc1cccc(S(=O)(=O)N2CCCCCC2)c1
  cell number change: 16.5%
